The source of these data is patent US20060280894A1, “Metal complexes as light-absorbing compounds in the information layer of optical data carriers” (priority 2003, published 2006).

The data set in a line: Dynamic writing test of a spin-coated DVD-R type disk. Particulars: 11 T pits, V=3.5 m/s, Pwrite=10 mW, diode laser λ=656 nm, NA=0.6.

As to `CCN(CC)c1ccc(N=Nc2nc(-c3ccccc3)ns2)c([N-]S(=O)(=O)N(C)C)c1.CCN(CC)c1ccc(N=Nc2nc(-c3ccccc3)ns2)c([N-]S(=O)(=O)N(C)C)c1.[Ni+2]` [Example 11], the “signal/noise ratio C/N” value is listed as 48 dB.

As to `CCN(CC)c1ccc(N=Nc2nc(C#N)c(C#N)n2C)c([N-]S(=O)(=O)N(C)C)c1.CCN(CC)c1ccc(N=Nc2nc(C#N)c(C#N)n2C)c([N-]S(=O)(=O)N(C)C)c1.[Ni+2]` [Example 15], the “signal/noise ratio C/N” value was found to be 53 dB.
